Results from US20230220057A1.

Target: insulin (Sigma)
Test: polyspecificity ELISA, insulin coated at 5 µg/mL

Row | Binder | binding
1 | Ab4 (antibody, human IgG1, V domains shown) VH: EVQLVQSGAEVKKPGATVKISCKVSGYTFITYWISWVQQAPGKGLEWMGAIDPSDSDARYSPSFQGRVTITADTSTDTAYMELSSLRSEDTAVYYCAKSDPGYSGYSLLYGFDSWGQGTLVTVSS VL: DVVMTQSPLSLPVTLGQPASISCRSSQSLVQRNGNTYLSWYQQRPGQSPRLLIYQVSNRYSGVPDRFSGSGSGTDFTLKISRVEAEDVGVYYCGQGAHLPLTFGQGTKVEIK | no binding (tested: 100 µg/mL)
2 | Ab6 (antibody, human IgG1, V domains shown) VH: EVQLVQSGAEVKKPGATVKISCKVSGYTFITYWISWVQQAPGKGLEWMGAIDPSDSDARYSPSFQGRVTITADTSTDTAYMELSSLRSEDTAVYYCAKSDPGYSGYSLLYGFDSWGQGTLVTVSS VL: DVVMTQSPLSLPVTLGQPASISCRSSQSLVQRNGNTYLSWFQQRPGQPPRLLIYQVSNRYSGVPDRFSGSGSGTDFTLKISRVEAEDVGVYYCGQGAHLPLTFGQGTKVEIK | no binding (tested: 100 µg/mL)
3 | Ab36 (antibody, human IgG1, V domains shown) VH: EVQLVQSGAEVKKPGATVKISCKVSGYTFITYWISWVQQAPGKGLEWMGAIDPSDSDARYSPSFQGRVTITADKSTDTAYMELSSLRSEDTAVYYCAKSDPGYSGYSLLYGFDSWGQGTLVTVSS VL: DVVMTQSPLSLPVTLGQPASISCRSSQSLVQRNGNTYLSWFQQRPGQPPRLLIYQVSNRYSGVPDRFSGSGSGTDFTLKISRVEAEDVGVYYCGQGAHLPLTFGQGTKVEIK | no binding (tested: 100 µg/mL)

Second part, the binder after the results:

Row | binding | Binder
4 | no binding (tested: 100 µg/mL) | Ab44 (antibody, human IgG1, V domains shown) VH: EVQLVQSGAEVKKPGESLKISCKGSGYSFITYWISWVRQMPGKGLEWMGAIDPSDSDARYSPSFQGQVTISADKSISTAYLQWSSLKASDTAMYYCAKSDPGYSGYSLLYGFDSWGQGTLVTVSS VL: DVVMTQSPLSLPVTLGQPASISCRSSQSLVQRNGNTYLSWYQQRPGQSPRLLIYQVSNRYSGVPDRFSGSGSGTDFTLKISRVEAEDVGVYYCGQGAHLPLTFGQGTKVEIK
5 | no binding (tested: 100 µg/mL) | Ab54 (antibody, human IgG1, V domains shown) VH: EVQLVQSGAEVKKPGESLKISCKISGYSFITYWISWVRQMPGKGLEWMGAIDPSDSDARYSPSFQGQVTISADKSISTAYLQWSSLKASDTAMYYCAKSDPGYSGYSLLYGFDSWGQGTLVTVSS VL: DVVMTQSPLSLPVTLGQPASISCRSSQSLVQRNGNTYLSWYQQRPGQSPRLLIYQVSNRYSGVPDRFSGSGSGTDFTLKISRVEAEDVGVYYCGQGAHLPLTFGQGTKVEIK

No constants are given. Whether binding was seen depends on the method and setting.
